This passage reports binding results from publication PMC10905564.

B1: TOPLESS (TPL) (protein, UniProt Q94AI7 1-1131)
chain: MSSLSRELVFLILQFLDEEKFKETVHKLEQESGFFFNMKYFEDEVHNGNWDEVEKYLSGFTKVDDNRYSMKIFFEIRKQKYLEALDKHDRPKAVDILVKDLKVFSTFNEELFKEITQLLTLENFRENEQLSKYGDTKSARAIMLVELKKLIEANPLFRDKLQFPTLRNSRLRTLINQSLNWQHQLCKNPRPNPDIKTLFVDHSCGPPNGARAPSPVNNPLLGGIPKAGGFPPLGAHGPFQPTASPVPTPLAGWMSSPSSVPHPAVSAGAIALGGPSIPAALKHPRTPPTNASLDYPSADSEHVSKRTRPMGISDEVNLGVNMLPMSFSGQAHGHSPAFKAPDDLPKTVARTLSQGSSPMSMDFHPIKQTLLLVGTNVGDIGLWEVGSRERLVQKTFKVWDLSKCSMPLQAALVKEPVVSVNRVIWSPDGSLFGVAYSRHIVQLYSYHGGEDMRQHLEIDAHVGGVNDISFSTPNKQLCVITCGDDKTIKVWDAATGVKRHTFEGHEAPVYSVCPHYKENIQFIFSTALDGKIKAWLYDNMGSRVDYDAPGRWCTTMAYSADGTRLFSCGTSKDGESFIVEWNESEGAVKRTYQGFHKRSLGVVQFDTTKNRYLAAGDDFSIKFWDMDAVQLLTAIDGDGGLQASPRIRFNKEGSLLAVSGNENVIKIMANSDGLRLLHTFENISSESSKPAINSIAAAAAAAATSAGHADRSANVVSIQGMNGDSRNMVDVKPVITEESNDKSKIWKLTEVSEPSQCRSLRLPENLRVAKISRLIFTNSGNAILALASNAIHLLWKWQRNERNATGKATASLPPQQWQPASGILMTNDVAETNPEEAVPCFALSKNDSYVMSASGGKISLFNMMTFKTMATFMPPPPAATFLAFHPQDNNIIAIGMDDSTIQIYNVRVDEVKSKLKGHSKRITGLAFSNVLNVLVSSGADAQLCVWNTDGWEKQRSKVLPLPQGRPNSAPSDTRVQFHQDQAHFLVVHETQLAIYETTKLECMKQWAVRESLAPITHATFSCDSQLVYASFMDATVCVFSSANLRLRCRVNPSAYLPASLSNSNVHPLVIAAHPQEPNMFAVGLSDGGVHIFEPLESEGKWGVAPPAENGSASGAPTAPSVGASASDQPQR
B2: CRABS CLAW (CRC) (protein, UniProt Q8L925 1-181)
chain: MNLEEKPTMTASRASPQAEHLYYVRCSICNTILAVGIPLKRMLDTVTVKCGHCGNLSFLTTTPPLQGHVSLTLQMQSFGGSDYKKGSSSSSSSSTSSDQPPSPSPPFVVKPPEKKQRLPSAYNRFMRDEIQRIKSANPEIPHREAFSAAAKNWAKYIPNSPTSITSGGHNMIHGLGFGEKK
B3: LATE FLOWERING (LATE), full-length (protein, UniProt Q9FKA9 1-173)
chain: MEDHYHQVEVEGEEEIKPSKEANKTDENTSSLRIFPCLFCSRKFHSSQALGGHQNAHKKERTAARRAKRAYDFVNNNDFLHTLPVFLSSPSQHHLTILGYPASASVACFPTVHPDHPIFKSSGSHVVLATSHQGRDCKGGYCCQQRVDILDHHYNVVNSDKGKDQCLDLSLHL

No constants are given. Whether binding was seen depends on the method and setting. Binding can be weak; no strength is given.

In the test the target is LATE without the EAR motif (LATEΔEAR) (Arabidopsis thaliana). The experiment in a line: two-hybrid; bait fused to Gal4 DNA-BD (pDEST_GBKT7), prey fused to Gal4 AD (pDEST_GADT7), yeast strain Y2H gold; spotted onto SD -W/-L or SD -W/-L/-H with 0, 0.05 or 0.1 mM 3-AT; 30°C in the dark, 7-10 days.
With B1, the binding entry was “no binding”.
For B2 the value was “binds”; for B3, “binds”.
